These are yes or no findings as the source states them, for the method shown. In cells and extracts the contact can be indirect. These calls come from enrichment with a bait or labelling near it, and not all partners need be listed.

By UniProt entry, the sequences of proteins in these tests, tags left out. Residues count along the entry.
UniProt P07750, residues 21-140: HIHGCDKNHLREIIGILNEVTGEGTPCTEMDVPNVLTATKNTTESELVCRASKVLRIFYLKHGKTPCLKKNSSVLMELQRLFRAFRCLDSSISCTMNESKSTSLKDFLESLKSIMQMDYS

In PMC11442487 one finds binding data, which are given here for one substance.

The assay deals with T1, Trem2 (triggering receptor expressed on myeloid cells 2), overexpressed in macrophage cells (UniProt Q99NH8).
T1 sequence: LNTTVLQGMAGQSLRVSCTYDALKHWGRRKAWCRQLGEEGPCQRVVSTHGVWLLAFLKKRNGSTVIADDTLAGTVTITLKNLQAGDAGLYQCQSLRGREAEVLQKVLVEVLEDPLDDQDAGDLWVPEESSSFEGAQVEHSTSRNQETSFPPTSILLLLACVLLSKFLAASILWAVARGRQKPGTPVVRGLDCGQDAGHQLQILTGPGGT
The assay can be described thus: affinity purification with mass spectrometry; immunoprecipitation (Millipore 17-500) from 1x10^7 macrophage cells stably overexpressing Trem2, high glucose 25 mM, LPS 100 ng/mL 6 h; gel bands digested with trypsin, LC-MS/MS.

With “interleukin (IL)-4, in macrophage cells (from UniProt P07750 21-140) (ligand)”, the binding result is recorded as “binds”.
